No constants are given. Whether binding was seen depends on the method and setting. Binding seen in cells or lysates may run through a third protein. Binding calls can cover weak binding; strength is not graded here.
How the values were obtained:
Assay in all cases: cross-linking; in vivo DSS (0.25 mM, 10 min, 37 °C) cross-linking of T. brucei bloodstream forms, anti-V5 immunoprecipitation of PIP5Pase-V5, LC-MS/MS; cross-linked peptide pairs by Kojak, FDR 1%, 11 replicates
[1] = target: phosphatidylinositol phosphate 5-phosphatase, V5-tagged (T. brucei) (UniProt Q385E2)
[2] = target: repressor-activator protein 1 (T. brucei (endogenous in bloodstream forms)) (UniProt Q387L4)
[3] = target: SMC5-SMC6 complex localization factor protein 1 (T. brucei (endogenous in bloodstream forms)) (UniProt Q57YW5)

The chains behind the UniProt entries cited, without tags or fusion partners. Where a name states a change or a piece, a line headed by the entry shows the natural chain unless it says otherwise.
UniProt Q385E2: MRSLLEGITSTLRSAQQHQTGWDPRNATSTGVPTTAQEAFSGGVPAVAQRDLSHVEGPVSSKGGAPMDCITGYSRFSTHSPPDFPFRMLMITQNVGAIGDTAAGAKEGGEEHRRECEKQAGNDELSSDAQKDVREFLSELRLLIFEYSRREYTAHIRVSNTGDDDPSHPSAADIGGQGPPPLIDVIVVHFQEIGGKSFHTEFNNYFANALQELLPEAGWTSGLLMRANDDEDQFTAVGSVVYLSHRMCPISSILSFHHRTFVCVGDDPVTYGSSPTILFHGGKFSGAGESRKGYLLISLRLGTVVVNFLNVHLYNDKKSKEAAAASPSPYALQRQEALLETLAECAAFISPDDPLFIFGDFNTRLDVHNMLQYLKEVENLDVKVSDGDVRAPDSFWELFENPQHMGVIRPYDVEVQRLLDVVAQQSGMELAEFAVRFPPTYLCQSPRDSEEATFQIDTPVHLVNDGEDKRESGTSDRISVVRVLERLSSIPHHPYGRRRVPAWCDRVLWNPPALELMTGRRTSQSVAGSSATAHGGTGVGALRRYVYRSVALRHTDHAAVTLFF
UniProt Q387L4: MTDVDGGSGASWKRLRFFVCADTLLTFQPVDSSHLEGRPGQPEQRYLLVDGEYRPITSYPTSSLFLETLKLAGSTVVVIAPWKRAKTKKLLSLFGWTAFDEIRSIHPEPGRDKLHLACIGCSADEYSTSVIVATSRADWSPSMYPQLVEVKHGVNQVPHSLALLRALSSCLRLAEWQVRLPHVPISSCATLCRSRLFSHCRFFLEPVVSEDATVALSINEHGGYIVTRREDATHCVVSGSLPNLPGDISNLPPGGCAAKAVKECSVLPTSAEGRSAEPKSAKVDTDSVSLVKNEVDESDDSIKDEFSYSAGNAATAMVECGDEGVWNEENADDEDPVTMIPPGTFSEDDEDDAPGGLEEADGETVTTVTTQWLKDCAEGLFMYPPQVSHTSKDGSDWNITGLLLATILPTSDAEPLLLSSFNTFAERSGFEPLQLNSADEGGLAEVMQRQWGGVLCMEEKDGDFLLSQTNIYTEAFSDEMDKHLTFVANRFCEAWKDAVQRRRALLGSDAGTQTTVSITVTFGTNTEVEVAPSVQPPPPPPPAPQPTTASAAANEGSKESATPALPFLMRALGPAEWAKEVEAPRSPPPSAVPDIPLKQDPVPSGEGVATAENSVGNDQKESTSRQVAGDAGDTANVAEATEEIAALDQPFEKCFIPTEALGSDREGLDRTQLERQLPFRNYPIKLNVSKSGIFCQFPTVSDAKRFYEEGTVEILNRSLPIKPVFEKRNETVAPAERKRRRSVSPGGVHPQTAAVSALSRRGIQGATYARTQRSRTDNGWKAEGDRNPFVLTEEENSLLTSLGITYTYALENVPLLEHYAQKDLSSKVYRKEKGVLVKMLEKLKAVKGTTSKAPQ
UniProt Q57YW5: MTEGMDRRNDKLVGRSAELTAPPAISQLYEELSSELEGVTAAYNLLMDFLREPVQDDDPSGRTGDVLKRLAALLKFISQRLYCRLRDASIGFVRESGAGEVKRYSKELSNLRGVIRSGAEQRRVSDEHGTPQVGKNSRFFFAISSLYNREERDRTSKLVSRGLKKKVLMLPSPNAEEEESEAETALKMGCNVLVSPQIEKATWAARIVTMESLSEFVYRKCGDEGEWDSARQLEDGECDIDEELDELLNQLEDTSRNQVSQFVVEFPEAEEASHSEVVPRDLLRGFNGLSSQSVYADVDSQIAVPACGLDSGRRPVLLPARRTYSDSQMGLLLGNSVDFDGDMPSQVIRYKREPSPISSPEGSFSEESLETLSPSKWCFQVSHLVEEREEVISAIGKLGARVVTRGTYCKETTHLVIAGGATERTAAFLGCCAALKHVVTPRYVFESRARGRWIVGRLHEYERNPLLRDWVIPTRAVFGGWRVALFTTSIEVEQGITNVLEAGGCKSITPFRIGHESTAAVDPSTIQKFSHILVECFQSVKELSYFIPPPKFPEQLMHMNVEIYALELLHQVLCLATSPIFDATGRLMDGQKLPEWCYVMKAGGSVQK
UniProt Q382T9: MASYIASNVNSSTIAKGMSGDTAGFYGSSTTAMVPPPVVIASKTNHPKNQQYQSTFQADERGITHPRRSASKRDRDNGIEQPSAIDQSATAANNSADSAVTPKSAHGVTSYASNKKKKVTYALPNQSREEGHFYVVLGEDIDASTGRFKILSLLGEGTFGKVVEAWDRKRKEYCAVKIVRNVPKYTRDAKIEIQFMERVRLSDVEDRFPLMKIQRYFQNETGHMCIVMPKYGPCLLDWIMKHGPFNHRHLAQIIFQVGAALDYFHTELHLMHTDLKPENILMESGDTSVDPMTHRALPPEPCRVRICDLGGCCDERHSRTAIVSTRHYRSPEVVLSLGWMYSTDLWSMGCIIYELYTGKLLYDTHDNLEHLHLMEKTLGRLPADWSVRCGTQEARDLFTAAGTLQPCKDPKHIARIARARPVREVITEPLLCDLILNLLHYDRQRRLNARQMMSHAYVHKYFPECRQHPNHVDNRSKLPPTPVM
UniProt Q384C0: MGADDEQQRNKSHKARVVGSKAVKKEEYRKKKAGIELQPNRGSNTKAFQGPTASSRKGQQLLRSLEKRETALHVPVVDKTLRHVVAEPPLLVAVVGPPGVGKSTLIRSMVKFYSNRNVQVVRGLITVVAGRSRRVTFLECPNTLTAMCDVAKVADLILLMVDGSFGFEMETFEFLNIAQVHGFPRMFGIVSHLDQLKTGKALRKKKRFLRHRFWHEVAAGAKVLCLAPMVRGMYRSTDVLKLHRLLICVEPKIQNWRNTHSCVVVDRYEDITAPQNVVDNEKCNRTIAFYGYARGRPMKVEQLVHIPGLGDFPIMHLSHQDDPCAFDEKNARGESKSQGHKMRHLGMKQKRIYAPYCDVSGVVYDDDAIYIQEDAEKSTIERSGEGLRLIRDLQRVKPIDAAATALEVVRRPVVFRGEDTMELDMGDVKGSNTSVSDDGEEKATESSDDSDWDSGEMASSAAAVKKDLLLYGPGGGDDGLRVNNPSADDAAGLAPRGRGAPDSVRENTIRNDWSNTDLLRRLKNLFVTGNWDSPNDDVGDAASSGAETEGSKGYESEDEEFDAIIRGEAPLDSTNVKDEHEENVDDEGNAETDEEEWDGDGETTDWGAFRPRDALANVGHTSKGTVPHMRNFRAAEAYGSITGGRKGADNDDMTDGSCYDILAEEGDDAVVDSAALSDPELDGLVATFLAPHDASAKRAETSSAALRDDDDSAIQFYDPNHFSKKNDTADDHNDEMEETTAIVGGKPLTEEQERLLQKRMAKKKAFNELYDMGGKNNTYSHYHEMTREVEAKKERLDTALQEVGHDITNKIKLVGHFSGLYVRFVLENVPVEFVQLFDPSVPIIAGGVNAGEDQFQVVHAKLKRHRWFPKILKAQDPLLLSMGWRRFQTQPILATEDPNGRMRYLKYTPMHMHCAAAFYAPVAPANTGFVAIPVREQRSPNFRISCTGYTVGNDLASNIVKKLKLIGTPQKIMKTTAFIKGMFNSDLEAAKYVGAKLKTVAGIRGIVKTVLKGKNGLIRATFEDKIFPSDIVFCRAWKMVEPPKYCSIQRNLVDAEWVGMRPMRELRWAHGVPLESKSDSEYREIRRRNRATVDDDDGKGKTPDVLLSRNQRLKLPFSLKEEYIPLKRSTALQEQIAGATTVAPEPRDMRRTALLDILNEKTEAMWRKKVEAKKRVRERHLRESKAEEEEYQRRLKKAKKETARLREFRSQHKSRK
UniProt Q57ZK1: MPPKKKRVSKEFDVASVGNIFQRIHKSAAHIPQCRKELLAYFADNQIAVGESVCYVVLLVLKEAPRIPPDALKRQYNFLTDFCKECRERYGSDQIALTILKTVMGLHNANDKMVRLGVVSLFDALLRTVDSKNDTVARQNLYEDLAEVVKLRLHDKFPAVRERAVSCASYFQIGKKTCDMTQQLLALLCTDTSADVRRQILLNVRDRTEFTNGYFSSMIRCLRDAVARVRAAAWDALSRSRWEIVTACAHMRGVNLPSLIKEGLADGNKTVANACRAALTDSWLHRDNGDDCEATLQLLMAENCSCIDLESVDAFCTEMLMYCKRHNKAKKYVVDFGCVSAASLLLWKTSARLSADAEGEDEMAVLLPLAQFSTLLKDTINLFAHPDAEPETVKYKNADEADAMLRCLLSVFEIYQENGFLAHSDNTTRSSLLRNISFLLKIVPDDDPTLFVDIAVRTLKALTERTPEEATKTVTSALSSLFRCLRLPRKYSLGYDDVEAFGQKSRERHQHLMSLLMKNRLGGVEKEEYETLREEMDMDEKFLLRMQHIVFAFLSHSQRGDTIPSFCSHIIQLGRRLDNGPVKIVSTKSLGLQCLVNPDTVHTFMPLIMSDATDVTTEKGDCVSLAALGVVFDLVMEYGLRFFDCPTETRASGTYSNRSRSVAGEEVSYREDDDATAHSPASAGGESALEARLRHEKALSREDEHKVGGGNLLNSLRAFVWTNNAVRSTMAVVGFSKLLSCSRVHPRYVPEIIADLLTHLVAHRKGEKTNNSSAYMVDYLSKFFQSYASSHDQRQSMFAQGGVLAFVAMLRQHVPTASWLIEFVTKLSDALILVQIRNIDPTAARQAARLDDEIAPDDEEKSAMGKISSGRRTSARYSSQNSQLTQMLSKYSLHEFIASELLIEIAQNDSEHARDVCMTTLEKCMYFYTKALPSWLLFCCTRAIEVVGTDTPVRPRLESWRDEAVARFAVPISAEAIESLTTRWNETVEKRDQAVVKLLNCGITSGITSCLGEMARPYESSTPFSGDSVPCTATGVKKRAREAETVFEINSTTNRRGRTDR

| binding [1] | binding [2] | binding [3] | Substance |
| --- | --- | --- | --- |
| binds |  |  | KKT19, kinetochore complex Cdc2-like protein kinase (from UniProt Q382T9) (enzyme) |
| binds | binds |  | Nop136 (from UniProt Q384C0) |
| binds |  |  | SMC5-SMC6 complex localization factor protein 1 (from UniProt Q57YW5) |
|  |  | binds | condensin subunit 3 (from UniProt Q57ZK1) |
